Laboratory results from patent publication EP4424325A1.
These are yes or no findings as the source states them, for the method shown. Some results given as binding are weak or reduced against the parent protein; the word gives no strength.

target: recombinant hTfR containing the extracellular region of hTfR (coated on the ELISA plate in Example 16) (human) (UniProt P02786); assay: ELISA, recombinant hTfR coated on plate

binding	Binder
binds	VHH5-Tandem-GS3-hIDS (protein) QVQLVESGGGLVQPGGSLRLSCAASGSIFDIYVMRWYRQAPGKGLEWVASIYDGGRNDYDNVVKGRFTISRDNSKNTLYLQMNSLRAEDTAVYFCNVLTYAGRPYWGQGTQVTVSSGSQVQLVESGGGLVQPGGSLRLSCAASGSIFDIYVMRWYRQAPGKGLEWVASIYDGGRNDYDNVVKGRFTISRDNSKNTLYLQMNSLRAEDTAVYFCNVLTYAGRPYWGQGTQVTVSSGGGGSGGGGSGGGGSSETQANSTTDALNVLLIIVDDLRPSLGCYGDKLVRSPNIDQLASHSLLFQNAFAQQAVCAPSRVSFLTGRRPDTTRLYDFNSYWRVHAGNFSTIPQYFKENGYVTMSVGKVFHPGISSNHTDDSPYSWSFPPYHPSSEKYENTKTCRGPDGELHANLLCPVDVLDVPEGTLPDKQSTEQAIQLLEKMKTSASPFFLAVGYHKPHIPFRYPKEFQKLYPLENITLAPDPEVPDGLPPVAYNPWMDIRQREDVQALNISVPYGPIPVDFQRKIRQSYFASVSYLDTQVGRLLSALDDLQLANSTIIAFTSDHGWALGEHGEWAKYSNFDVATHVPLIFYVPGRTASLPEAGEKLFPYLDPFDSASQLMEPGRQSMDLVELVSLFPTLAGLAGLQVPPRCPVPSFHVELCREGKNLLKHFRFRDLEEDPYLPGNPRELIAYSQYPRPSDIPQWNSDKPSLKDIKIMGYSIRTIDYRYTVWVGFNPDEFLANFSDIHAGELYFVDSDPLQDHNMYNDSQGGDLFQLLMP
binds	VHH5-GS3-hIDS (protein) QVQLVESGGGLVQPGGSLRLSCAASGSIFDIYVMRWYRQAPGKGLEWVASIYDGGRNDYDNVVKGRFTISRDNSKNTLYLQMNSLRAEDTAVYFCNVLTYAGRPYWGQGTQVTVSSGGGGSGGGGSGGGGSSETQANSTTDALNVLLIIVDDLRPSLGCYGDKLVRSPNIDQLASHSLLFQNAFAQQAVCAPSRVSFLTGRRPDTTRLYDFNSYWRVHAGNFSTIPQYFKENGYVTMSVGKVFHPGISSNHTDDSPYSWSFPPYHPSSEKYENTKTCRGPDGELHANLLCPVDVLDVPEGTLPDKQSTEQAIQLLEKMKTSASPFFLAVGYHKPHIPFRYPKEFQKLYPLENITLAPDPEVPDGLPPVAYNPWMDIRQREDVQALNISVPYGPIPVDFQRKIRQSYFASVSYLDTQVGRLLSALDDLQLANSTIIAFTSDHGWALGEHGEWAKYSNFDVATHVPLIFYVPGRTASLPEAGEKLFPYLDPFDSASQLMEPGRQSMDLVELVSLFPTLAGLAGLQVPPRCPVPSFHVELCREGKNLLKHFRFRDLEEDPYLPGNPRELIAYSQYPRPSDIPQWNSDKPSLKDIKIMGYSIRTIDYRYTVWVGFNPDEFLANFSDIHAGELYFVDSDPLQDHNMYNDSQGGDLFQLLMP
binds	VHH6-GS3-hIDS (protein) QVQLVESGGGLVQPGGSLRLSCAASGSIFDIYVMRWYRQAPGKGLEWVASIYAGGRNDYDNVVKGRFTISRDNSKNTLYLQMNSLRAEDTAVYFCNVLTYAGRPYWGQGTQVTVSSGGGGSGGGGSGGGGSSETQANSTTDALNVLLIIVDDLRPSLGCYGDKLVRSPNIDQLASHSLLFQNAFAQQAVCAPSRVSFLTGRRPDTTRLYDFNSYWRVHAGNFSTIPQYFKENGYVTMSVGKVFHPGISSNHTDDSPYSWSFPPYHPSSEKYENTKTCRGPDGELHANLLCPVDVLDVPEGTLPDKQSTEQAIQLLEKMKTSASPFFLAVGYHKPHIPFRYPKEFQKLYPLENITLAPDPEVPDGLPPVAYNPWMDIRQREDVQALNISVPYGPIPVDFQRKIRQSYFASVSYLDTQVGRLLSALDDLQLANSTIIAFTSDHGWALGEHGEWAKYSNFDVATHVPLIFYVPGRTASLPEAGEKLFPYLDPFDSASQLMEPGRQSMDLVELVSLFPTLAGLAGLQVPPRCPVPSFHVELCREGKNLLKHFRFRDLEEDPYLPGNPRELIAYSQYPRPSDIPQWNSDKPSLKDIKIMGYSIRTIDYRYTVWVGFNPDEFLANFSDIHAGELYFVDSDPLQDHNMYNDSQGGDLFQLLMP
